# From publication PMC4756533
# Sequences of proteins named here, by UniProt entry; tags and fusion partners are left off.
# UniProt Q92731: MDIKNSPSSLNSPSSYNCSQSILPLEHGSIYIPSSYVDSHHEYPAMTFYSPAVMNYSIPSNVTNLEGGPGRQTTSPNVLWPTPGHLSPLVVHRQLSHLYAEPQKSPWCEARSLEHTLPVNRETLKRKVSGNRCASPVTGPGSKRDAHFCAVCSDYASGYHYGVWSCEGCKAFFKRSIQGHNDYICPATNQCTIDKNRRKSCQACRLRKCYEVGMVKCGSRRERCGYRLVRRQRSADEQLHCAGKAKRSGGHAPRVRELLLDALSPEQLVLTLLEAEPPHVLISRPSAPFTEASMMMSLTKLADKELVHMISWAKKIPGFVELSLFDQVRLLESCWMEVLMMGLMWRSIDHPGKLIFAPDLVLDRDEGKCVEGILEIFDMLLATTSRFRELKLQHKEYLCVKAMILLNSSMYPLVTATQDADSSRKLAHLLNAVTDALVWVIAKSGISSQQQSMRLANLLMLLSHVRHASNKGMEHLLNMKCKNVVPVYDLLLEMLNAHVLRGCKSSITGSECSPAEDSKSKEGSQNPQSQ
# UniProt Q13569: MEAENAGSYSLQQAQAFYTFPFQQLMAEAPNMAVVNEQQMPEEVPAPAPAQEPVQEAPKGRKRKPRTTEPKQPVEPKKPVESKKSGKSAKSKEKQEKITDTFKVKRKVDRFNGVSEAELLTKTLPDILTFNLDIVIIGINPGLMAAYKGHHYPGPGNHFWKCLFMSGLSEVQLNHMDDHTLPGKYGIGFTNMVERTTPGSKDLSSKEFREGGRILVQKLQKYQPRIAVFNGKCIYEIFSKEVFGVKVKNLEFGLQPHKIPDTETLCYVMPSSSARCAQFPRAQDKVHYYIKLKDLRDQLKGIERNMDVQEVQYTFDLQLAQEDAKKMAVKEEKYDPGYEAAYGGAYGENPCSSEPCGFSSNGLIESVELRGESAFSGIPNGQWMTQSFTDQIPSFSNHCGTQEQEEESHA
# These are yes or no findings as the source states them, for the method shown. For some assays here: Binding seen in cells or lysates may run through a third protein. Some binding calls cover weakened binding; strength is not graded here.
# Tests used:
# [1] = molecular target: GST-tagged ERβ (oestrogen receptor beta coupled to glutathion-S-transferase) (human) (UniProt Q92731); test: far-Western, overlay or dot blot; purified GST-ERβ resolved by SDS-PAGE, on nitrocellulose, denatured with 6 M guanidine-HCl and renatured, probed overnight at 4 °C with 7-9 µg recombinant TDG in 20 mM Tris-HCl pH 8, 50 mM NaCl, 10 % glycerol, 0.1 % Tween-20, 2 % skim milk, 1 mM DTT; detected with anti-TDG; both purified
# [2] = molecular target: GST-tagged ERβ (oestrogen receptor beta coupled to glutathion-S-transferase) (human) (UniProt Q92731); test: pull-down; GST-ERβ or GST from E. coli lysate (0.8 µg/µl total protein in GST buffer: 10 mM Tris-HCl pH 8, 50 mM NaCl, 5 % glycerol, 1 mM DTT) bound to Glutathione Sepharose, 350 ng recombinant hTDG added, 4 °C, 2 h; washes with 80 mM NaCl and once 150-300 mM NaCl; western blot with anti-GST and anti-TDG; four experiments quantified; only the binder purified
substance,measurement,setting,value
recombinant thymine DNA glycosylase (hTDG) (from UniProt Q13569 1-410) (enzyme),binding,[1],binds
same,binding,[2],binds
